Reference: publication PMC9424285
No constants are given. Whether binding was seen depends on the method and setting. Binding seen in cells or lysates may run through a third protein.

Target: T1, phospholipase C-γ1 (PLC-γ1) (human (endogenous in KYSE410 and KYSE510)) (UniProt P19174)
T1 sequence: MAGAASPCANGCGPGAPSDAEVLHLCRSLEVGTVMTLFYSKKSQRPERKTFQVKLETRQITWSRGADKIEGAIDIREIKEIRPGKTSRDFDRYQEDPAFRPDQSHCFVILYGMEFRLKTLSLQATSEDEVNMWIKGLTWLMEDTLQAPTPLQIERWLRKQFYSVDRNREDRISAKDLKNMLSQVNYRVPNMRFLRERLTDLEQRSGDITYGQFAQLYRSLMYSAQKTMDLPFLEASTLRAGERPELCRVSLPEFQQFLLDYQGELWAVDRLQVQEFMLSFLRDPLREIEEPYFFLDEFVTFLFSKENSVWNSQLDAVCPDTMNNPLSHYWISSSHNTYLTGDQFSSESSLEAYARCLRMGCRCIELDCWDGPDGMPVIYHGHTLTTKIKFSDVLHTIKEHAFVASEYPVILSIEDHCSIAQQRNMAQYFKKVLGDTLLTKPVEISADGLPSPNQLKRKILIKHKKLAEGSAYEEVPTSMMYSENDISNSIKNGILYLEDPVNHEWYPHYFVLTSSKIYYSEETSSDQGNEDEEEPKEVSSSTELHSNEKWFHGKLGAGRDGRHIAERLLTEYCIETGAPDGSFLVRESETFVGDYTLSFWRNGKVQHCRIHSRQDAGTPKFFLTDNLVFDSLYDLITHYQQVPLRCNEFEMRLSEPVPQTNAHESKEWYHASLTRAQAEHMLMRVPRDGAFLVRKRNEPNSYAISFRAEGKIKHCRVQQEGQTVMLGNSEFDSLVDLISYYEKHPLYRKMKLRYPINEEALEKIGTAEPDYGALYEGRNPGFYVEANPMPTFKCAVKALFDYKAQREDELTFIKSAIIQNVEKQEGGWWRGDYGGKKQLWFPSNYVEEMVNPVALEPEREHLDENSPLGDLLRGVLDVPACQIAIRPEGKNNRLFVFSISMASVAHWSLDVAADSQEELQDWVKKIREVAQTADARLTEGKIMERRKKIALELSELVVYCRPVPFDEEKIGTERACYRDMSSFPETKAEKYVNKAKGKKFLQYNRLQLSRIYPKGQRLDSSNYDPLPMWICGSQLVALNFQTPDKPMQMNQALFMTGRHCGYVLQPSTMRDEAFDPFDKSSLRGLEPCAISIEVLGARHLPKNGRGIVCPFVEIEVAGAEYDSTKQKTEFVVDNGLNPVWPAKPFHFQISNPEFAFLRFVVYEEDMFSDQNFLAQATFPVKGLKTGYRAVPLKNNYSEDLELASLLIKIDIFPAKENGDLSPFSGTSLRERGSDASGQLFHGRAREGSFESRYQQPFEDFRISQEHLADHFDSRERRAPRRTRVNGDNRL
Test: co-IP; immunoprecipitation-immunoblotting of KYSE410 or KYSE510 cells treated with CCL22 (50 ng/ml); PLC-γ1 against its partners

- binding: no binding
B1: C-C motif chemokine receptor 4 (CCR4) (receptor, UniProt P51679 1-360)
chain: MNPTDIADTTLDESIYSNYYLYESIPKPCTKEGIKAFGELFLPPLYSLVFVFGLLGNSVVVLVLFKYKRLRSMTDVYLLNLAISDLLFVFSLPFWGYYAADQWVFGLGLCKMISWMYLVGFYSGIFFVMLMSIDRYLAIVHAVFSLRARTLTYGVITSLATWSVAVFASLPGFLFSTCYTERNHTYCKTKYSLNSTTWKVLSSLEINILGLVIPLGIMLFCYSMIIRTLQHCKNEKKNKAVKMIFAVVVLFLGFWTPYNIVLFLETLVELEVLQDCTFERYLDYAIQATETLAFVHCCLNPIIYFFLGEKFRKYILQLFKTCRGLFVLCQYCGLLQIYSADTPSSSYTQSTMDHDLHDAL
